The target of series [1] is RpoS (sigma factor) (Pseudomonas putida) (UniProt Q88ME8). Put plainly: EMSA. The settings on record: 10 mM Mg2+, EMSA: 10 mM Tris pH 7.8, 50 mM KCl, 10 mM MgCl2, 5% glycerol, 25 C, 30 min, 5% acrylamide gel on ice, 0.5x TBE, recombinant protein, protein details: His (pET28a), probe letters rebuilt from the primers and the genome. (In general: In EMSA bound probe runs differently from free probe, usually more slowly.)

The target is the same in series [2]. Put plainly: competition with a labelled probe. The following applies: 10-fold cold DNA abolished shift of labeled PwspA; EMSA: 10 mM Tris pH 7.8, 50 mM KCl, 10 mM MgCl2, 5% glycerol, 25 C, 30 min; 5% acrylamide gel on ice, 0.5x TBE; recombinant protein; protein details: His (pET28a); probe letters rebuilt from the primers and the genome.

For at least one entry, the source does not settle the construct or the ends of the probe. For some of these results: No signal at the amounts used counts as a negative. For some of these results: The comparison behind a weaker result is the experiment's own reference, which may not be listed here.

Turning to “GGGCATGTCATTGACGATGGCGATCTTCATCCCTGAGCAACTCCGATCAGTTCCACAACAGCATCCAGCAACGCATCGTCGTGGAAACTGGCCTTTGCCAAATAGTAGTCGGCGCCGGCGTCCAGGCCACGCCGTCGGTCTTCCTCACGGTCTTTATAGGACACCACCATCACCGGCAATGACTGCAGGCGCTGGTCGCGACGCACCAGGGTAACCAGCTCGATACCGTCCATGCGCGGCATGTCGATGTCGGTGATCAACAGGTCGAAGTCCTCACTGCGCAGGGCGTTCCAGCCGTCCATGCCATCCACCGCCACCGCCACGTCGTAGCCACGGTTGCCCAGCAGCTTGCGCTGCAGTTCGCGTACGGTCAGCGAGTCGTCGACCACCAGGATGCGTTTGCGGACTACGCCACGGGCTCCGCTGCTGCCGCGCTCGATGCGCTCCAGGCTGCCCGTGCTGAGCAGTTTTTCCAGCGAGCGTAGCAAGTCTTCGACATCGACGATCAGGACCACCGAGCCATCATTCAGCAGGTAGCTTGACA (double strand) [PwspF]”, the binding result in series [1] (weak and unspecific binding, label: FAM 5' (via tail primer)) is given as “binds more weakly”. Turning to “ATGGGCATATCGACGAGCGCGAGCGGGCGCTGATCGAGGGTGAATTCACGCGCCTGGACAGCGACCGCGAATTGCAGCACTGGCTGCATGCCGAGCTGAACAAGCCGCTGGACCCGGCCGAAGTGGCCCGCGCTGCGCAAACGCCGGAGATGGCTGCCGAGATGTACCTGGCCAGCGTGATGATGGTCGATCAGGAAAACTTCATGGAGCGTGCCTACCTGGACGAGCTGGCCCGCCAGCTGCGGCTGGACCCGGGCTTGCGCCAGGAACTGGAAAGCCAGGTGCGGTTGGCTGCAGCGTAGTGGCGGTGCTTGCCACGGCCTATTGAGCGCCTGTGAGATCGAGCGCCGCCCGTGCGGCGCTCCGTCTCACAGGCGCAAAATTCCTGACGACAATCACATCAATACCGTAAGACCTCTGGGCTATACTTCGGCGATTTTTCCCGCTCGTTGTGAATTCCTGAGGGCTGAATGTGAAGAACTGGACCTTGCGCTCAGCAGGTAGCTTGACA (double strand) [cold PwspA (unlabeled specific competitor)]”, the binding result in series [2] is “binds”.

With “ATGGGCATATCGACGAGCGCGAGCGGGCGCTGATCGAGGGTGAATTCACGCGCCTGGACAGCGACCGCGAATTGCAGCACTGGCTGCATGCCGAGCTGAACAAGCCGCTGGACCCGGCCGAAGTGGCCCGCGCTGCGCAAACGCCGGAGATGGCTGCCGAGATGTACCTGGCCAGCGTGATGATGGTCGATCAGGAAAACTTCATGGAGCGTGCCTACCTGGACGAGCTGGCCCGCCAGCTGCGGCTGGACCCGGGCTTGCGCCAGGAACTGGAAAGCCAGGTGCGGTTGGCTGCAGCGTAGTGGCGGTGCTTGCCACGGCCTATTGAGCGCCTGTGAGATCGAGCGCCGCCCGTGCGGCGCTCCGTCTCACAGGCGCAAAATTCCTGACGACAATCACATCAATACCGTAAGACCTCTGGGTCGGCACTCGGCGATTTTTCCCGCTCGTTGTGAATTCCTGAGGGCTGAATGTGAAGAACTGGACCTTGCGCTCAGCAGGTAGCTTGACA (double strand) [PwspA(-10M)]”, the binding result in series [1] is “no binding”.

For the sequence “ATGGGCATATCGACGAGCGCGAGCGGGCGCTGATCGAGGGTGAATTCACGCGCCTGGACAGCGACCGCGAATTGCAGCACTGGCTGCATGCCGAGCTGAACAAGCCGCTGGACCCGGCCGAAGTGGCCCGCGCTGCGCAAACGCCGGAGATGGCTGCCGAGATGTACCTGGCCAGCGTGATGATGGTCGATCAGGAAAACTTCATGGAGCGTGCCTACCTGGACGAGCTGGCCCGCCAGCTGCGGCTGGACCCGGGCTTGCGCCAGGAACTGGAAAGCCAGGTGCGGTTGGCTGCAGCGTAGTGGCGGTGCTTGCCACGGCCTATTGAGCGCCTGTGAGATCGAGCGCCGCCCGTGCGGCGCTCCGTCTCACAGGCGCAAAATTCCTGACGACAATCACATCAATACCGTAAGACCTCTGGGCTATACTTCGGCGATTTTTCCCGCTCGTTGTGAATTCCTGAGGGCTGAATGTGAAGAACTGGACCTTGCGCTCAGCAGGTAGCTTGACA (double strand) [PwspA]”, the binding result in series [1] (shift at 100 nM RpoS or larger, label: FAM 5' (via tail primer)) is reported as “binds”.

For the origin of these results see publication PMC11784136.
